Measurements reported in PubChem BioAssay AID1259405 (NCATS, 2018)

Assay: 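Knock-downs that lift recombinant protein yield in hamster ovary cells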 (primary screen)
Cell system: Chinese hamster CHO-K1 ovary cells with stable secreted eGFP expression
Reagents: single siRNA against mouse genes, 0.8 pmol siRNA per well (2 µl of 400 nM stock)
Duration: 3 days
Measurement: 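Percent of the per-plate non-targeting control median for intracellular GFP per well by laser scanning cytometry and for cell viability by ATP luminescence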
Direction: GFP, % of control: higher = more GFP per well, higher productivity; viability (ATP), % of control: higher = more viable cells (more ATP)
Rule for the call: 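a knock-down is called active if GFP reaches 120% or more of non-targeting control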
The whole screen tested about 50,000 reagents; this is a part drawn at random. In the full data, about 4,000 (8%) were called active. 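Mouse siRNA library applied to hamster cells; one well for each siRNA.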

| target | PubChem SID | GFP, % of control | viability (ATP), % of control | Outcome |
| --- | --- | --- | --- | --- |
| Txnrd1 (thioredoxin reductase 1) | SID363573038 | 136 | 86.6 | active |
| Txnrd1 (thioredoxin reductase 1) | SID363577614 | 90.1 | 91.7 | inactive |
| Txnrd1 (thioredoxin reductase 1) | SID363581134 | 92.5 | 75.6 | inactive |
| Bfsp2 (beaded filament structural protein 2, phakinin) | SID363541042 | 85.4 | 93.9 | inactive |
| Bfsp2 (beaded filament structural protein 2, phakinin) | SID363555669 | 66.8 | 65.8 | inactive |
| Bfsp2 (beaded filament structural protein 2, phakinin) | SID363565958 | 45.3 | 71.8 | inactive |
| Pick1 (protein interacting with C kinase 1) | SID363581851 | 52.1 | 60.9 | inactive |
| Pick1 (protein interacting with C kinase 1) | SID363589345 | 80.6 | 67.8 | inactive |
| Acacb (acetyl-Coenzyme A carboxylase beta) | SID363572659 | 53 | 56.9 | inactive |
| Acacb (acetyl-Coenzyme A carboxylase beta) | SID363577939 | 114 | 118 | inactive |
| Acacb (acetyl-Coenzyme A carboxylase beta) | SID363582163 | 130 | 124 | active |
| Top3b (topoisomerase (DNA) III beta) | SID363569168 | 101 | 99.4 | inactive |
| Top3b (topoisomerase (DNA) III beta) | SID363583600 | 74.2 | 90.7 | inactive |
| Rab33a (RAB33A, member RAS oncogene family) | SID363570327 | 80.4 | 98.8 | inactive |
| Rab33a (RAB33A, member RAS oncogene family) | SID363576663 | 41.1 | 59.3 | inactive |
| Rab33a (RAB33A, member RAS oncogene family) | SID363579831 | 49.2 | 70.9 | inactive |
| Ctsj (cathepsin J) | SID363547312 | 42.7 | 47.6 | inactive |
| Ctsj (cathepsin J) | SID363558081 | 51.8 | 64.7 | inactive |
| Ctsj (cathepsin J) | SID363559839 | 65.1 | 82.5 | inactive |
| Tpbpb (trophoblast specific protein beta) | SID363556513 | 127 | 82.8 | active |
| Tpbpb (trophoblast specific protein beta) | SID363586963 | 85.5 | 114 | inactive |
| Tpbpb (trophoblast specific protein beta) | SID363589071 | 131 | 138 | active |
| Gm5600 (predicted gene 5600) | SID363540418 | 82 | 85.9 | inactive |
| Gm5600 (predicted gene 5600) | SID363542170 | 74.5 | 69.6 | inactive |
| Gm5600 (predicted gene 5600) | SID363567086 | 151 | 74.4 | active |
| Fbxl5 (F-box and leucine-rich repeat protein 5) | SID363539987 | 42.9 | 51 | inactive |
| Fbxl5 (F-box and leucine-rich repeat protein 5) | SID363561288 | 71.6 | 83.9 | inactive |
| Fbxl5 (F-box and leucine-rich repeat protein 5) | SID363564324 | 92.3 | 85.7 | inactive |
| Mex3d (mex3 RNA binding family member D) | SID363554815 | 57.2 | 27.3 | inactive |
| Mex3d (mex3 RNA binding family member D) | SID363568262 | 50.9 | 52.5 | inactive |
| Mex3d (mex3 RNA binding family member D) | SID363586321 | 95 | 94.6 | inactive |
| Ovca2 (candidate tumor suppressor in ovarian cancer 2) | SID363573840 | 84.2 | 133 | inactive |
| Ovca2 (candidate tumor suppressor in ovarian cancer 2) | SID363581584 | 66.4 | 96.4 | inactive |
| Ovca2 (candidate tumor suppressor in ovarian cancer 2) | SID363584048 | 85.9 | 110 | inactive |

Hits, of those listed so far:
| target | PubChem SID | GFP, % of control | viability (ATP), % of control | Outcome |
| --- | --- | --- | --- | --- |
| Txnrd1 (thioredoxin reductase 1) | SID363573038 | 136 | 86.6 | active |
| Acacb (acetyl-Coenzyme A carboxylase beta) | SID363582163 | 130 | 124 | active |
| Tpbpb (trophoblast specific protein beta) | SID363556513 | 127 | 82.8 | active |
| Tpbpb (trophoblast specific protein beta) | SID363589071 | 131 | 138 | active |
| Gm5600 (predicted gene 5600) | SID363567086 | 151 | 74.4 | active |
